For some of these results: At least one read-out could not be matched to a standard name with certainty. Marks after values point to notes of the source that are not given here. For some of these results: At least one structure is not confirmed: it was looked up by name or label, or the drawing left a doubt. Some of these results come from one statement about several compounds together.
Tests used:
[1] = test system: WT and DARPP-32 KO mice; assay: Locomotor activity measurements in activity monitors; format: in vivo, mouse; conditions: clozapine 0.3 mg/kg, 10 min before PCA (4 mg/kg) or 5-HTP (50 mg/kg)
Protocol: Locomotor activity of WT and DARPP-32 KO mice was measured in activity monitors (43×44×45 cm) equipped with both horizontal and vertical sensors (Opto-Varimex, Columbus Instruments, Columbus, Ohio). Mice were acclimated to the boxes for 1 h, […] before the day of the experiment. The day of the experiment, mice were placed in the boxes for 20 min (habituation period) before drug administration. […] Locomotor activity parameters (distance traveled and stereotypic movements) were quantified by using the AutoTrack System (Columbus Instruments).

[2] = test system: DARPP-32; assay: DARPP-32 phosphorylation in mouse brain slices, immunoblotting with phosphorylation state-specific antibodies; conditions: serotonin; for Percent Phospho-Ser137 / Percent Phospho-Thr34: 2 min; for Percent Phospho-Thr75: 10 min
[3] = test system: DARPP-32; conditions: chronic administration in rats; cited from earlier work
[4] = test system: phospho-Ser137-DARPP-32; assay: Dephosphorylation of phospho-Ser137-DARPP-32 by recombinant PP2C isoforms; format: biochemical, rat; conditions: phospho-Ser137-DARPP-32 as substrate; Mn^2+ or Mg^2+
Protocol: The activity of PP2C isoforms using ^32P-DARPP (phosphorylated at Ser137) was assayed at 37° C. in a reaction mixture containing 25 mM Tris-HCl, pH 7.5, 10 mM MnCl2, 1% BSA, and […] substrate, in a total volume of […]. Reactions were stopped by addition of […] of 50% trichloroacetic acid. Samples were then incubated on ice for 30 min and centrifuged at 10,000 g for 10 min at 4° C. Radioactivity recovered in the supernatant was measured by Cerenkov counting in a scintillation counter (Beckman).
Kinetic parameters (Km and Vmax) were determined from Lineweaver-Burk plots.
Legend Table 8. Enzymatic activities of PP2C isoforms assayed using [^32P]phospho-Ser137 DARPP-32 as substrate. Phosphatase activity was measured by the release of ^32P, and Km and Vmax values were calculated from Lineweaver-Burk plots of the data.

[5] = neostriatal slices from D1 receptor knock-out mice
[6] = neostriatal slices from MPTP-treated mice

For `CN1CCN(C2=Nc3cc(Cl)ccc3Nc3ccccc32)CC1` [Clozapine], the “effect on the locomotor effects of PCA and 5-HTP” value [1] was “counteracts”.

In the case of `NCCc1c[nH]c2ccc(O)cc12` [Serotonin], the “Percent Phospho-Ser137” value [2, 5] is reported as 137(17.6)* Percent, the “Percent Phospho-Thr34” value [2, 5] is reported as 292(35.5)* Percent and the “Percent Phospho-Thr75” value [2, 5] is reported as 81(3.9)* Percent. The “Percent Phospho-Ser137” value [2, 6] was 154(21.1)* Percent, the “Percent Phospho-Thr34” value [2, 6] was 307(44.0)* Percent and the “Percent Phospho-Thr75” value [2, 6] was 80(9.2)* Percent.

For `[Li]` [lithium], the “frontal cortex levels of DARPP-32 immunoreactivity” value [3] is given as “significant increases”.

B1: PP2Cb: recombinant his-tagged beta isoform of protein phosphatase 2C cloned from rat striatum (protein, UniProt P35815 2-390, looked up)
Protein phosphatase 1B: GAFLDKPKTEKHNAHGAGNGLRYGLSSMQGWRVEMEDAHTAVVGIPHGLEDWSFFAVYDGHAGSRVANYCSTHLLEHITTNEDFRAADKSGFALEPSVENVKTGIRTGFLKIDEYMRNFSDLRNGMDRSGSTAVGVMISPTHIYFINCGDSRAVLCRNGQVCFSTQDHKPCNPMEKERIQNAGGSVMIQRVNGSLAVSRALGDYDYKCVDGKGPTEQLVSPEPEVYEILRAEEDEFVVLACDGIWDVMSNEELCEFVNSRLEVSDDLENVCNWVVDTCLHKGSRDNMSIVLVCFANAPKVSDEAVKRDLELDKHLESRVEEIMQKSGEEGMPDLAHVMRILSAENIPNLPPGGGLAGKRNVIEAVYSRLNPNKDNDGGAGDLEDSLVAL
modifications: His tag
notes: recombinant his-tagged beta isoform of protein phosphatase 2C cloned from rat striatum
In the case of B1, the “divalent cation concentration for maximal activity” value [4] is reported as 10 to 20 mM.

B2: PP2Cg: recombinant his-tagged gamma isoform of protein phosphatase 2C cloned from rat striatum (protein)
chain: MGAYLSQPNTVKCSGDGVGAPRLPLPYGFSAMQGWRVSMEDAHNCIPELDNETAMFSVYDGHGGEEVALYCAKYLPDIIKDQKAYKEGKLQKALQDAFLAIDAKLTTDEVIKELAQIAGRPTEDEDDKEKVADEDDVDNEEAALLHEEATMTIEELLTRYGQNCQKGPPHTKSGTGIGDEPEPQGLNGEAGPEDPSRETPSQENGPTAKGHTGPSSNSDHGTEAGQIGEPGTATGEAGPSCSSASDKLPRVAKSKFFEDSEDESDEVEEEEDDSEECSEDEDGYSSEEAENEEDEDDTEEAEEDDDEEMMVPGMEGKEEPGSDSGTTAVVALIRGKQLIVANAGDSRCVVSEAGKALDMSYDHKPEDEVELARIKNAGGKVTMDGRVNGGLNLSRAIGDHFYKRNKNLPPQEQMISALPDIKVLTLTDDHEFMVIACDGIWNVMSSQEVVDFIQSKISQRDENGELRLLSSIVEELLDQCLAPDTSGDGTGCDNMTCIIICFKPRNTVELQPESGKRKLEEALSTEGAEENGNSDKKKAKRD
modifications: left off: small tags and cut ends
notes: recombinant his-tagged gamma isoform of protein phosphatase 2C cloned from rat striatum
In the case of B2, the “divalent cation concentration for maximal activity” value [4] is reported as 10 to 20 mM.
